Laboratory results as given in patent US20060039900A1 (Janssen / Centocor, published 2006).
Results are given in words; binding and its absence hold for the method and conditions named. Some results given as binding are weak or reduced against the parent protein; the word gives no strength.

T1: soluble murine tissue factor extracellular domain (murine) (UniProt P20352)
T1 sequence: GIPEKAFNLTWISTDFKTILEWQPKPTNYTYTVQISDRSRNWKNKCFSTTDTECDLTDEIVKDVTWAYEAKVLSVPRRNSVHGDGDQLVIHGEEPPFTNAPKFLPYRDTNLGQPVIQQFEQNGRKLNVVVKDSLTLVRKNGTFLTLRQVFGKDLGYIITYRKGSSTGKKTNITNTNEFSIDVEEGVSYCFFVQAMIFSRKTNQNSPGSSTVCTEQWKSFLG


Biological target: T1, soluble murine tissue factor extracellular domain (murine)
Test: ELISA, purified Fabs

binding | Binder
binds | PHD127 Fab (Fab, V domains shown, Human Fab from the HuCAL library) VH: QVQLVQSGAEVKKPGESLKISCKGSYSFTNSWISWVRQMPGKGLEWMGIIDPDDSYTSYSPSFQGQVTISADKSISTAYLQWSSLKASDTAMYYCARGAGYGRMFGDVWGQGTLVTVSS VL: DIELTQPPSVSVAPGQTARISCSGDNLGSYYASWYQQKPGQAPVLVIYQDDNRPSGIPERFSGSNSGNTATLTISGTQAEDEADYYCGAYTYSTSWVFGGGTKLTVLG
binds | PHD103 Fab (Fab, V domains shown) VH: QVQLVQSGAEVKKPGESLKISCKGSGYSFSNSWIAWVRQMPGKGLEWMGGIIGPGHSYTKYSPSFQGQVTISADKSISTAYLQWSSLKASDTAMYYCARINMGYFDYWGQGTLVTVSS VL: DIELTQPPSVSVAPGQTARISCSGDSLGLKKFVSWYQQKPGQAPVLVIYDDSNRPSGIPERFSGSNSGNTATLTISGTQAEDEADYYCGTYDQTIGHDVVFGGGTKLTVLG
